The values are deposited in ChEMBL (CHEMBL3988442, “University of Dundee, Small-Polar-MMV Screening Library” (2021)).

Each number is a percent effect as filed. The controls that fix the scale are not given in the record; negative values are as filed. This is an unselected part of the compounds tested. Two or more numbers in one place are separate tests of the same structure; such repeats can differ widely.

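Viability assay of Plasmodium falciparum sporozoites; the read-out is not stated. The concentration is filed as 10 mM, unlikely as a test dose, so the dose is not known. The record gives no direction; compounds that gave an IC50 in retests scored well above the rest, so higher reads as lower viability. Strong results were mostly tested again. Size under these conditions: about 34,000 compounds, about 280 of them at 50% or above in at least one test.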

* Cc1nc2ccccc2nc1CN(C)C1CCCN(c2cccnn2)C1 (centres unmarked) | -0.6689%
* COc1ccc(-c2n[nH]cc2C2SCC(=O)Nc3[nH]ncc32)cc1 (centres unmarked) | 2.368%
* [H][C@@]12CCCO[C@]1([H])[C@H](NC(=O)CC1CC1)CN(C(=O)c1ccoc1C)C2 | 14.01%
* Cc1cccnc1C(=O)N1CCCC(c2[nH]ncc2S(C)(=O)=O)C1 (centres unmarked) | -21.2%
* CC(NC(=O)C1CC1)c1cc(O)nc(-c2cccnc2)n1 (centres unmarked) | 6.016%
* Cn1cc(-c2nc(CNCCn3cccn3)cs2)cn1 | 2.738% and -17.3% and -10.05%
* CC(C)N1CCC(Cc2cc(-c3cccc(C(=O)O)c3)ncn2)C1 (centres unmarked) | -18.13%
* O=C(O)C(F)(F)F.[H][C@@]12CCN(CCc3ccccc3)[C@]1([H])CC[C@@H](C(=O)NC1CCC1)O2 | 8.944%
* CC1=C(C#N)C(=O)NC(=O)/C1=C\c1c(C)nn(-c2ccc(C)cc2)c1O | 11.2%
* CC(=O)N1CCCC1c1ccc(CN2CCOCC2)cn1 (centres unmarked) | -0.259%
* Cc1ccc(C(=O)N2CCN(Cc3nc(C(C)C)no3)CC2)c(=O)[nH]1 | 5.43%
* Cc1ccc(C)c(NC(=O)C(C)N2CCCN(c3nccs3)CC2)c1 (centres unmarked) | -5.431%
* COc1ccc(CC(=O)Nc2cccnc2N2CCCC2)cc1OC | 2.125%
* COCCN1CCC(C)(c2cc(O)[nH]n2)CC1 | 7.432%
* O=C(O)C(F)(F)F.[H][C@@]12CCN(c3ncccn3)[C@@]1([H])CCN2C(=O)NC(C)C | 0.7881%
* CN(C)S(=O)(=O)N1CCC(c2ccncc2)CC1 | 14.24%
* Cl.OC1(c2ccc(F)cc2)CCN(Cc2ccccc2N2CCCC2)CC1 | 10.2%
* O=C(O)C(F)(F)F.O=C(O)C(F)(F)F.[H][C@@]12COC[C@]1(CN1CCOCC1)CN(Cc1cccc(OC)c1)C2 | -10.11%
* NC(=O)C1CCN(C(=O)c2ccn(-c3ccc(F)cc3)n2)CC1 | 20.45%
* CCc1nnc(Nc2cccc(C3CCN(CCO)CC3)n2)s1 | -8.886%
* COc1ccc(C(O)CNC(=O)NCc2csc(C)n2)cc1 (centres unmarked) | 22.98% and 14.95% and 9.321%
* CN(C)CCN1C(=O)CCC12CCCN(C(=O)C1CC=CC1)CC2.O=C(O)C(F)(F)F (centres unmarked) | -5.166%
* Cc1cc(C)n(NC(=O)c2ccc(Cl)cc2Cl)c(=O)c1 | 8.9%
* O=C(C1CCOCC1)N1CCC2(CCN(Cc3nccs3)CC2)CC1.O=C(O)C(F)(F)F | -9.156%
* [H][C@@]12CC(=O)N(C)[C@@]1([H])CCN2S(=O)(=O)Cc1ccccc1 | -9.635%
* CCNC(c1ccc(CC)cc1)c1cccnc1 (centres unmarked) | 1.588%
* CC(O)CN1CCN(C(=O)c2cc(Cl)cc3cccnc23)CC1 (centres unmarked) | -2.507%
* CCOCC1CN(Cc2cccnc2)Cc2nn(C)cc21.O=C(O)C(F)(F)F.O=C(O)C(F)(F)F (centres unmarked) | -9.976%
* COCCNc1ncc(-c2cccc(F)c2)c(-c2nccn2C)n1 | -2.735%
* CCCS(=O)(=O)N1CC(=O)N(CCCc2ccccc2)CC(O)C1 (centres unmarked) | -5.263%
* Cc1ccc(CC2CCCN2CC(=O)NCc2ccccn2)cc1 (centres unmarked) | 6.877%
* Nc1nc(CN2CCOC(Cn3cccn3)C2)nc2ccccc12 (centres unmarked) | 10.92%

Repeated from the top, 2 entries:

{"compound": "Cc1nc2ccccc2nc1CN(C)C1CCCN(c2cccnn2)C1", "stereo": "centres unmarked", "effect": -0.6689}
{"compound": "COc1ccc(-c2n[nH]cc2C2SCC(=O)Nc3[nH]ncc32)cc1", "stereo": "centres unmarked", "effect": 2.368}